Values of other authors, collected in patent US7179842B2, “Method of treating non-insulin dependent diabetes mellitus with phytanic acid derivatives” (priority 2000, dated 2007).

Details: endogenous level; cited from earlier work

Compound	level in normal human serum
CC(C)CCCC(C)CCCC(C)CCCC(C)CC(=O)O (centres unmarked) [phytanic acid]	6 µM
C/C(=C\C(=O)O)CCC[C@H](C)CCC[C@H](C)CCCC(C)C [Phytenic-, phytenic acid]	2 µM
